The text below walks through data of patent US20210317201A1.

Chains of the proteins cited; added tags and fusions are not shown. Lines headed by an entry give the natural chain unless they say otherwise; changes in a name come on top. Residues count along the entry.
UniProt Q5VWK5, residues 24-353: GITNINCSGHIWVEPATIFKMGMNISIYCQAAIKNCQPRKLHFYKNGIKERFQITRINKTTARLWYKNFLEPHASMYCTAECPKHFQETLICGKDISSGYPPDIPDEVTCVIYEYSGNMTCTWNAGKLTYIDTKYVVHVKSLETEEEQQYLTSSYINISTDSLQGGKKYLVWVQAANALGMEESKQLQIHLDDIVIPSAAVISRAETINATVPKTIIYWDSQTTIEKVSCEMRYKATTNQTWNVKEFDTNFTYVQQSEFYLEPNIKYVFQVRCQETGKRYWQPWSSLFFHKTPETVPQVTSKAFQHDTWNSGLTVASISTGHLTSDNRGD
UniProt P29460: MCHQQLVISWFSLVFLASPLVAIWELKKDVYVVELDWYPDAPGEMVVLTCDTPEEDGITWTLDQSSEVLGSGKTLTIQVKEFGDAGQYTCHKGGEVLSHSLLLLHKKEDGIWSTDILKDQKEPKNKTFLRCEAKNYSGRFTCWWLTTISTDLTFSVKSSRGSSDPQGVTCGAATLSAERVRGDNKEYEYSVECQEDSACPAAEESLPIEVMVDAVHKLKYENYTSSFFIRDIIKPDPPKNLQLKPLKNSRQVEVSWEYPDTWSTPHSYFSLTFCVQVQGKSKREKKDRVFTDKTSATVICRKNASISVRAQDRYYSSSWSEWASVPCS

The target of the test is Human IL-23R-Fc (human) (UniProt Q5VWK5). Nature of the test: biosensor sensorgram (response in nm, Separate Fit, Model 1:1): human IL-23R-Fc captured on the biosensor surface, 10 nM human IL-23 injected.

Results are given in words; binding and its absence hold for the method and conditions named. Some entries that bind do so weakly or less than the wild type.

For the substance “recombinant human IL-23 (from UniProt P29460 23-328) (ligand)”, the binding entry is on record as “binds”.
